{"sequences": {"note": "Protein sequences, listed by entry. Tags and fused reporters are not part of them. Lines headed by an entry give the natural chain unless they say otherwise; changes in a name come on top.", "UniProt O94782": "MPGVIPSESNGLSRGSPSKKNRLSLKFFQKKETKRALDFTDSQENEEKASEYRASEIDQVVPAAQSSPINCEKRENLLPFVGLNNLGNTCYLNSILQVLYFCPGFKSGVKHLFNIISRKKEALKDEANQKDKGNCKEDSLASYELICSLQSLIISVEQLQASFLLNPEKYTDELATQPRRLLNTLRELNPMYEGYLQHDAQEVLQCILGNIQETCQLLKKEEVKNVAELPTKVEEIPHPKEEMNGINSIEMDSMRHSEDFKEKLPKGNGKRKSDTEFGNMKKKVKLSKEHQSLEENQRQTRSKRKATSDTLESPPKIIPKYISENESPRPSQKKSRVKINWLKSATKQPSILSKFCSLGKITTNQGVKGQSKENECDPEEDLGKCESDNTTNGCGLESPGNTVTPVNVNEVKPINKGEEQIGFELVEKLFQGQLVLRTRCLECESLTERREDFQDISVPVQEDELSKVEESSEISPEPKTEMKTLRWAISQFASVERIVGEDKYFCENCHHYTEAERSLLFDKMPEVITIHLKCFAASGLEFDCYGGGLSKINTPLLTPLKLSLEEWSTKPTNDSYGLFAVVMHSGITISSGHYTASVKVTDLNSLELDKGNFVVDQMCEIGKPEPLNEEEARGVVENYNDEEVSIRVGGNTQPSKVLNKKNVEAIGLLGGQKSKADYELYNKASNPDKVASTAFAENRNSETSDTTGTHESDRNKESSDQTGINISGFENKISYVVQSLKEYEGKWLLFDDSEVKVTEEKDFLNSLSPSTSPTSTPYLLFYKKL"}, "source": "PubChem BioAssay AID743255", "about": "(National Center for Advancing Translational Sciences (NCATS), 2014)", "note": "Several values for one entry are separate records, joined by “and”; a condition that tells them apart may be missing. Equal entries are not always repeated. In all, about 390,000 compounds went through this assay and about 910 (0.23%) were called active. The inconclusive results got no clear call from the source; some entries with a clear call stand among them for comparison. Calls come from the whole dose curve; as a rule, active = well fitted inhibition curve with a large enough effect; inconclusive = small, poorly fitted or top-dose-only effect; inactive = no such curve, though single readings can be large or run the other way. Potencies of inconclusive entries are doubtful fits and often do not repeat. Potency is the fitted concentration of half-maximal effect.", "data": [{"target": "Ubiquitin carboxyl-terminal hydrolase 1 (Homo sapiens) (UniProt O94782)", "experiment": "Inhibitors of USP1/UAF1: Primary Screen; note: nearly all actives have a fitted effect of over 60% in size", "details": "recombinant USP1/UAF1, Ub-Rhodamine cleavage fluorescence; series mostly up to 57.1 µM", "in_short": "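In this screen, compounds sit with the deubiquitinase complex (1nM) for 15 min at room temperature before Ub-Rho is added at 150nM final. Fluorescence rise is then followed for 6 reads every 60 seconds.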", "values": [{"smiles": "CCc1cccc(NC(=O)CCc2c(C)nn(-c3ccc(N4CCCCC4)nn3)c2C)c1", "Potency": "inactive"}, {"smiles": "CC1(C)CC(N=C2C([N+](=O)[O-])=CC=C3C2=NC2(CCCCC2)N3O)CC(C)(C)N1", "Potency": "inconclusive: 39.8 µM [inhibitor, partial curve]"}, {"smiles": "CCN(CC)c1ccc(NC(=O)Cn2c3ncccc3c(=O)n2-c2ccccc2)c(C)c1", "Potency": "inconclusive: 44.7 µM [inhibitor, partial curve]"}, {"smiles": "CC(C)Cn1cc(C(=O)NCCCN2CCC(C)CC2)c2c3ccccc3n(C)c2c1=O", "Potency": "inactive"}, {"smiles": "CC(=O)N1CCN(C(=O)C2CCN(S(=O)(=O)c3ccccc3C(F)(F)F)CC2)CC1", "Potency": "inconclusive: 50.1 µM [inhibitor, partial curve, poor fit]"}, {"smiles": "O=C1CCN(Cc2ccccc2)C=C1c1cccc(O)c1", "Potency": "inconclusive: 50.1 µM [inhibitor, partial curve, poor fit]"}, {"smiles": "CCCCCCCCSC1=CC(=O)C(OC)=C(OC)C1=O", "Potency": "inactive"}, {"smiles": "CC(C)C[C@@H](CN)NC(=O)c1nc[nH]c1C(=O)N[C@@H](C)C(=O)CNC[C@H](CC(C)C)NC(=O)c1nc[nH]c1C(=O)N[C@@H](Cc1ccccc1)C(=O)O", "Potency": "inconclusive: 2.24 µM [inhibitor, full curve, poor fit]"}, {"smiles": "CC1SC(C)C(=O)N(CC(=O)Nc2ccc3c(c2)OCO3)C1=O", "note": "(stereo unspecified)", "Potency": "inconclusive: 2.51 µM [inhibitor, full curve, poor fit]"}, {"smiles": "COc1ccc(C2C=C(c3ccccc3)Nc3nc(NS(=O)(=O)c4ccc(C)cc4)nn32)cc1", "note": "(stereo unspecified)", "Potency": "inconclusive: 44.7 µM [inhibitor, partial curve, poor fit]"}, {"smiles": "COc1cccc(Nc2nc(N)nc(-c3oc4ccccc4c3C)n2)c1", "Potency": "inactive"}, {"smiles": "O=C(Nc1ccccc1)C1=C[C@H](c2ccc(Br)cc2)C[C@H](OCc2ccc(CO)cc2)O1", "Potency": "inactive"}, {"smiles": "C=CCn1c(-c2ccccc2)cc(SC)c(C#N)c1=O", "Potency": "inconclusive: 50.1 µM [inhibitor, partial curve, poor fit]"}, {"smiles": "OC(COc1ccc(Cl)cc1)CN1CCC(Cc2ccccc2)CC1", "note": "(stereo unspecified)", "Potency": "inactive"}, {"smiles": "Cc1ccc2oc(=O)c3cnn(CC(=O)N4CCN(c5cccc(C(F)(F)F)c5)CC4)c3c2c1", "Potency": "inconclusive: 56.2 µM [inhibitor, partial curve, poor fit]"}, {"smiles": "CCOc1ccc(NC(=O)N(Cc2ccc(CC)cc2)Cc2cn[nH]c2-c2ccc(OC)cc2)cc1", "Potency": "inconclusive: 56.2 µM [inhibitor, partial curve, poor fit]"}, {"smiles": "Cc1ccc(C(C)C)c(OCC(=O)Nc2cccc(-c3nc4ncccc4o3)c2)c1", "Potency": "inconclusive: 22.4 µM [inhibitor, partial curve, poor fit]"}, {"smiles": "CCOC(=O)CNC(=O)CCNS(=O)(=O)c1ccc2c(c1)c(=O)n(C)c(=O)n2C", "Potency": "inconclusive: 0.708 µM [inhibitor, full curve, poor fit]"}, {"smiles": "CN1CCN(c2ccc(NC(=S)NC(=O)c3cccc4ccccc34)cc2)CC1", "Potency": "inactive"}, {"smiles": "C=CCOc1ccccc1CN(C(=O)CCl)c1ccc2c(c1)OCO2", "Potency": "inactive"}, {"smiles": "CCN1CCN(Cc2ccc(NC(=O)c3cc(NC(=O)c4cc(C)on4)cc(OC)c3)cc2C(F)(F)F)CC1", "Potency": "inconclusive: 5.62 µM [inhibitor, partial curve] and inconclusive: 4.47 µM [inhibitor, full curve, poor fit]"}, {"smiles": "COc1ccc(N(CC(=O)Nc2ccc(F)c(Cl)c2)S(=O)(=O)c2c(C)noc2C)cc1", "Potency": "inactive"}, {"smiles": "CCOC(=O)CCCCC(=O)c1[nH]c(=O)[nH]c1CSCCO", "Potency": "inactive"}, {"smiles": "Cc1ccccc1-n1cnc2cc(NCc3cccs3)ccc21", "Potency": "inactive"}, {"smiles": "CCCCCn1c(NCc2ccco2)nc2ccccc21", "Potency": "inconclusive: 39.8 µM [inhibitor, partial curve, poor fit]"}, {"smiles": "Cc1cc(F)ccc1NC(=O)C(C(C)C)N1Cc2ccccc2C1=O", "note": "(stereo unspecified)", "Potency": "inactive"}, {"smiles": "O=C(NC1CC1)C1=C[C@H](c2c[nH]c3ccccc23)C[C@H](OCc2ccc(CO)cc2)O1", "Potency": "inconclusive: 31.6 µM [inhibitor, partial curve]"}, {"smiles": "COc1ccc(-c2cc(C(=O)OCC(=O)N3CCCCC3)c3ccccc3n2)cc1OC", "Potency": "inconclusive: 35.5 µM [inhibitor, partial curve]"}, {"smiles": "Cc1nnc(C)c2c(C)n(Cc3ccc4c(c3)OCO4)c(C)c12", "Potency": "inconclusive: 8.91 µM [inhibitor, full curve, poor fit]"}, {"smiles": "O=C(c1ccccc1)C1OC1C(=O)c1ccccc1", "note": "(stereo unspecified)", "Potency": "inactive"}, {"smiles": "O=C(O)C1C2C=CC(C2)C1C(=O)Nc1cccc(C(=O)N2CCCCC2)c1", "note": "(stereo unspecified)", "Potency": "inconclusive: 39.8 µM [inhibitor, partial curve, poor fit]"}, {"smiles": "CC(=O)c1cccc(NC(=O)Cn2cnc(S(=O)(=O)N3CCCCC3)c2)c1", "Potency": "inconclusive: 0.398 µM [inhibitor, full curve]"}, {"smiles": "O=C(c1ccc(Cl)cc1)C(CN1CCCC1)c1ccccc1", "note": "(stereo unspecified)", "Potency": "inactive"}, {"smiles": "CCOC(=O)CNC(=O)c1ccc2[nH]c3c(c2c1)CCCC3", "Potency": "inconclusive: 5.62 µM [inhibitor, single point]"}, {"smiles": "C[C@@H]1CN([C@H](C)CO)S(=O)(=O)c2ccc(C#Cc3ccccc3)cc2O[C@H]1CN(C)C(=O)Nc1ccc2c(c1)OCO2", "Potency": "inconclusive: 0.251 µM [inhibitor, full curve, poor fit]"}, {"smiles": "CCOC(=O)c1ccccc1NC(=O)c1ccc2c(SCC(=O)O)c3c(nc2c1)CCCC3", "Potency": "inconclusive: 44.7 µM [inhibitor, partial curve]"}, {"smiles": "COC(=O)c1cccc(-n2sc3ccccc3c2=O)c1", "Potency": "inactive"}, {"smiles": "COc1ccc(NC(=O)COC(=O)c2ccco2)c([N+](=O)[O-])c1", "Potency": "inactive"}, {"smiles": "CCN1CCN(C(=O)c2ccc3c(c2)N(Cc2c(F)cccc2Cl)C(=O)c2ccccc2S3)CC1", "Potency": "inconclusive: 10 µM [inhibitor, full curve, poor fit]"}, {"smiles": "COc1ccc(-c2nc(C)c(CCNC(=O)c3ccco3)s2)cc1", "Potency": "inactive"}, {"smiles": "COC(=O)c1cc2occc2n1Cc1nc(-c2ccccc2C)oc1C", "Potency": "inconclusive: 7.94 µM [inhibitor, partial curve]"}]}]}
